Our source for the binding values is patent CN113698481A.

Protein sequences, listed by entry. Tags and fused reporters are not part of them. Lines headed by an entry give the natural chain unless they say otherwise; changes in a name come on top.
UniProt P01225: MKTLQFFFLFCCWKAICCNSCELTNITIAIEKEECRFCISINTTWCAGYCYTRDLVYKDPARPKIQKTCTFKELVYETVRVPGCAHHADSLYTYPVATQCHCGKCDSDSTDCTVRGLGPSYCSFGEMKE

B1: SEQ ID NO 7 (VHH)
VHH: QVQLVESGGGLVQAGGSLRLSCVASGRTFSSYDMGWFRQAPGEEREAVAAINWSGGSTYYADSVKGRFTISSDNAKNTVYLQMNNLKPEDTAVYYCAARQVPGWWDYWGQGTQVTVSS
B2: SEQ ID NO 4 (VHH)
VHH: QVRLVESGGGLVQPGGSLRLSCTASGGTFDRYNVAWFRQAPGEEREAVASIMWSGDNTYYANSVKGRFTISRDNAKNTVYLQMNSLKPEDTAVYYCAARIQEQGWWDYWGQGTQVTVSS
B3: SEQ ID NO 3 (VHH)
VHH: QVQVAESGGGLVQSGGSMNLSCTASGNLFSVDAMGWFRQAPGEEREAVAAIMWSGDSTYYANAVKGRFTISRDNAKNTVYLQMNSLKPEDTAVYYCAARLQEEGWWDYWGQGTQVTVSS
B4: SEQ ID NO 6 (VHH)
VHH: B3 VHH with A5V, S14P, M18L, N19R, T23A, N27R, L28T, F29V, V31S, D32H
B5: SEQ ID NO 5 (VHH)
VHH: QVQLVESGGGLAQAGGSLRLSCAASGRTASGYAMGWFRQAPGKEREAVAAIMWSGGSTYYADSVKGRFTISRDNAKNTVYLQMNSLKTEDTAVYYCAARTDGSGWWDYWGQGTQVTVSS

Substitutions are numbered along the chain they refer to. No constants are given. Whether binding was seen depends on the method and setting. Some entries that bind do so weakly or less than the wild type.

For this assay, the target named is 促卵泡激素(FSH) (human) (UniProt P01225). Briefly: ELISA with purified His-tagged VHH (FSH coating not described). Background: An ELISA detects its analyte on a solid surface through an enzyme-linked reagent.
Turning to B1, the binding entry is “binds”. Consider B2, for which the binding result is listed as “binds”. With B3 the entry was “binds”. With B4 the entry was “binds”; with B5, “binds”.
